Assay results: PMC3796546
These are yes or no findings as the source states them, for the method shown. Binding seen in cells or lysates may run through a third protein. Some entries that bind do so weakly or less than the wild type.

Protein sequences, listed by entry. Tags and fused reporters are not part of them.
UniProt P25694: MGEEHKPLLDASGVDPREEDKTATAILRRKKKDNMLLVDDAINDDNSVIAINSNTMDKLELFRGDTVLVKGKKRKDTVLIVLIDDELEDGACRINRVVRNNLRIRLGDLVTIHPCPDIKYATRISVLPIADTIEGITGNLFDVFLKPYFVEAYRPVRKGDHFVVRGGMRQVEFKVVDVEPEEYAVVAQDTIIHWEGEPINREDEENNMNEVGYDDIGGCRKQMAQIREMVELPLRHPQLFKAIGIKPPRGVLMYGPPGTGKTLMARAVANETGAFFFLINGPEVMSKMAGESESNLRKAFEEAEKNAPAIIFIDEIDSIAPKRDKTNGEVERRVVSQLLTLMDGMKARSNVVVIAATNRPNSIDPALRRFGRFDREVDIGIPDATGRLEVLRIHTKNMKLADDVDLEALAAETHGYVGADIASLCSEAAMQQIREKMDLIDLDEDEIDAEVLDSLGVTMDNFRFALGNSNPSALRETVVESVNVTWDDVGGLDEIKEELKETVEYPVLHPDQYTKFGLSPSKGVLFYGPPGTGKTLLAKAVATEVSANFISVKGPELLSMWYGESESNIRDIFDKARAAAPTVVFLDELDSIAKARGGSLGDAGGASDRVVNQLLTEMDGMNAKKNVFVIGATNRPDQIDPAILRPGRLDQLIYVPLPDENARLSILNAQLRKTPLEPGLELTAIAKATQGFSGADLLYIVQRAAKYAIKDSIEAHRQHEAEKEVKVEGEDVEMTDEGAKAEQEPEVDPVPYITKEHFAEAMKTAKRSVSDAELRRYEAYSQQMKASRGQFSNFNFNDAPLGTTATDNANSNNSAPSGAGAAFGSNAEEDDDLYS

How the values were obtained:
[1] = molecular target: T1, 3xHA-irc20 (Δ883–1033) (S. cerevisiae) (UniProt Q06554); assay: co-IP; yeast crude extract in RNP buffer (0.1 M HEPES pH 7.4, 100 mM NaCl, 0.1% NP-40) on anti-HA agarose beads, 4°C, 90 minutes; HA-Irc20 derivatives precipitated, Cdc48–3xMyc detected by anti-MYC western blot
T1 sequence: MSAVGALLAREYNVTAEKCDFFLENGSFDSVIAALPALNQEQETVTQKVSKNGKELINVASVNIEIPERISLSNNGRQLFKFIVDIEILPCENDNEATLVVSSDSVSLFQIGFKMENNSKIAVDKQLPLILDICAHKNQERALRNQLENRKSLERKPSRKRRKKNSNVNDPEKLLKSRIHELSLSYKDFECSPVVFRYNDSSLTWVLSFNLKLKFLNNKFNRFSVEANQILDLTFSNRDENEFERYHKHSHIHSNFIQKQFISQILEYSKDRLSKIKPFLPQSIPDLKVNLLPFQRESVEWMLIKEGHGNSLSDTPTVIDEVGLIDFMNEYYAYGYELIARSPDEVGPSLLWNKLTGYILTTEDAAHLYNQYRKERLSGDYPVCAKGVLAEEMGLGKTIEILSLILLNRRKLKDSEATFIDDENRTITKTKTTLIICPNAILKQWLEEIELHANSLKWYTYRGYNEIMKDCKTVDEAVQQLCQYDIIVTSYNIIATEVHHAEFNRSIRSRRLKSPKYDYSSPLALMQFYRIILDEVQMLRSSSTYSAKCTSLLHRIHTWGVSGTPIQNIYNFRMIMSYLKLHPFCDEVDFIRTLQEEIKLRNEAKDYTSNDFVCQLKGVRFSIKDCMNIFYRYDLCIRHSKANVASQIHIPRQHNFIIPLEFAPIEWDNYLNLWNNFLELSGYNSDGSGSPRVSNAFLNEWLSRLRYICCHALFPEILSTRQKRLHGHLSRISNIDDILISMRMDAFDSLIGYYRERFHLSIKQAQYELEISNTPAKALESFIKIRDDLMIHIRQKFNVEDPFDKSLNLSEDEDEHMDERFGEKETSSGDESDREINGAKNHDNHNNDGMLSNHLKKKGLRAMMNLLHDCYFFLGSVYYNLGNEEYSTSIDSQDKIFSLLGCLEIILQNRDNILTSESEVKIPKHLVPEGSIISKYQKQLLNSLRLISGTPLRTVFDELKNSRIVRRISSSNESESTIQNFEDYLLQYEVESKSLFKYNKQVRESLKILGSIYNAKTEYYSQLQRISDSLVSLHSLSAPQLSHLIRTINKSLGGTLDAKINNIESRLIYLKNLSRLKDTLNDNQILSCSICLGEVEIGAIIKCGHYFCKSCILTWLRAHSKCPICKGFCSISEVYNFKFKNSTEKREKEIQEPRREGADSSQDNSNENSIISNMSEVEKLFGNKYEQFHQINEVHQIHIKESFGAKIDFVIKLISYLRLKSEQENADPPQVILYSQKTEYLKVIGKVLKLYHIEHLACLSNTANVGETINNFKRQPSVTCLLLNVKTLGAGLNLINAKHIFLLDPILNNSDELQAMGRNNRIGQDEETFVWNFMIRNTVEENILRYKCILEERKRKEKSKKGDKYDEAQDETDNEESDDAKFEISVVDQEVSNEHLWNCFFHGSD

[2] = molecular target: T2, 3xHA-Irc20 (a.a. 584–1556) (S. cerevisiae) (UniProt Q06554); assay: as above
T2 sequence: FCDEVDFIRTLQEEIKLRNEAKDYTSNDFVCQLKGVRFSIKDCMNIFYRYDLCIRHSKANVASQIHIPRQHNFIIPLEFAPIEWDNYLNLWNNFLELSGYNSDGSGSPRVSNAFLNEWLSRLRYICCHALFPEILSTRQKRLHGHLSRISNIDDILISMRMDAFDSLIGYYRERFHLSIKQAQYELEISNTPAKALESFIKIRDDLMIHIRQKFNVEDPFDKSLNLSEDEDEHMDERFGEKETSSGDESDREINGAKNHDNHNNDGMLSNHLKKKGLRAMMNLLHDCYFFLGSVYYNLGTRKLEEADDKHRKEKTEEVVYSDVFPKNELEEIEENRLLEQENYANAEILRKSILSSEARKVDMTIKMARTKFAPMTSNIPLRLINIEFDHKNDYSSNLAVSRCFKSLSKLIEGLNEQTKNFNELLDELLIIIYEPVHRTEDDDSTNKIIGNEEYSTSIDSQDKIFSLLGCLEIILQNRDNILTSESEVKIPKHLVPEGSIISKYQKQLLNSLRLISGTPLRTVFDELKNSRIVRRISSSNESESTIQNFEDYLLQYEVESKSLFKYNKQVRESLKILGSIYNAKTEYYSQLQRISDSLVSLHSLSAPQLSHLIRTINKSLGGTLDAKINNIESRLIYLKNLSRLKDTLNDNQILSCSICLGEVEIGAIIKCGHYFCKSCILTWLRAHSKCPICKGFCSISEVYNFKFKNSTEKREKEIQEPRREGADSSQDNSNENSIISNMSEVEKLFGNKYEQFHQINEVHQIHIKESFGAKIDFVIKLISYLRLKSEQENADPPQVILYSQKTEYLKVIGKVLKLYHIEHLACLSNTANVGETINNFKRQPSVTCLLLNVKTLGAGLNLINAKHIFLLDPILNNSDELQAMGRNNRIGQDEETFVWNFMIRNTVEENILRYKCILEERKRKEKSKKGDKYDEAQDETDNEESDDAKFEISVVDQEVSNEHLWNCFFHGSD

Q: Which results are given for Cdc48–3xMyc (from UniProt P25694 1-835)?
A: binding [1]: binds; binding [2]: binds
